Source: publication PMC7949124, “Metallo-β-lactamase domain-containing protein 2 is S-palmitoylated and exhibits acyl-CoA hydrolase activity” (The Journal of Biological Chemistry, 2020)
Substitutions are numbered along the chain they refer to. These are yes or no findings as the source states them, for the method shown. Binding seen in cells or lysates may run through a third protein. Some binding calls cover weakened binding; strength is not graded here. Sequences can lack the tags named with a protein.

Assays:
[1] = target: T1, N-terminally FLAG-tagged MBLAC2 (metallo-β-lactamase domain-containing protein 2), wildtype (human) (UniProt Q68D91); experiment: co-IP; FLAG-MBLAC2 and zDHHC20-GFP constructs coexpressed in HEK-293 cells; lysis in 50 mM Tris pH 7.4, 200 mM NaCl, 1% DDM, 10% glycerol, 1 mM TCEP; cleared lysate on FLAG resin 4 h; eluted with 3X FLAG peptide; immunoblot with FLAG and GFP antibodies
T1 sequence: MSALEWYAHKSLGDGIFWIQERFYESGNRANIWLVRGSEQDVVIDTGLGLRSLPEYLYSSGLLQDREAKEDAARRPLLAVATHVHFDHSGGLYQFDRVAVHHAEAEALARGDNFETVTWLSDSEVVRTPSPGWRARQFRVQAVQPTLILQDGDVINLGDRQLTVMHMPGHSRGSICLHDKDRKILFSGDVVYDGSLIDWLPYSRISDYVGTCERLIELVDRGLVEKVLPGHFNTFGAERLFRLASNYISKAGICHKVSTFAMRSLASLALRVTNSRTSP

[2] = target: T2, N-terminally FLAG-tagged MBLAC2(C254A), S-palmitoylation-deficient mutant (human) (UniProt Q68D91); experiment: as above
T2 sequence: T1 sequence with C254A

binding [1]: binds | binding [2]: binds
B1: C-terminally GFP-tagged zDHHC20 (enzyme, UniProt Q5W0Z9 1-365)
chain: MAPWTLWRCCQRVVGWVPVLFITFVVVWSYYAYVVELCVFTIFGNEENGKTVVYLVAFHLFFVMFVWSYWMTIFTSPASPSKEFYLSNSEKERYEKEFSQERQQEILRRAARALPIYTTSASKTIRYCEKCQLIKPDRAHHCSACDSCILKMDHHCPWVNNCVGFSNYKFFLLFLLYSLLYCLFVAATVLEYFIKFWTNELTDTRAKFHVLFLFFVSAMFFISVLSLFSYHCWLVGKNRTTIESFRAPTFSYGPDGNGFSLGCSKNWRQVFGDEKKYWLLPIFSSLGDGCSFPTRLVGMDPEQASVTNQNEYARSSGSNQPFPIKPLSESKNRLLDSESQWLENGAEEGIVKSGTNNHVTVAIEN
